{"source": "PubChem BioAssay AID1347076", "about": "(National Center for Advancing Translational Sciences (NCATS), 2019)", "note": "The campaign covered roughly 400,000 compounds. About 13,000 (3.2%) were called active. Inconclusive means that the source gave no clear call. Such entries were picked first, then a sample of the others. Calls follow the shape of the dose curve; as a rule, active = well fitted cell-killing curve with a large enough effect; inconclusive = small, poorly fitted or top-dose-only effect, or effect the other way; inactive = flat fitted curve, though single readings scatter. A potency beside an inconclusive call is a rough fit, not a confirmed value. % is scaled to controls: 0 for no effect and ±100 for the full control effect; potency is read from the fitted curve at half-maximal effect.", "data": [{"assay": "qHTS assay for MDR1-selective chemotherapeutics: Primary screen using the drug-selected MDR subline cells KB-V1; also: nearly all actives have a fitted effect of over 60% in size", "settings": "KB-V1 MDR cells viability, CellTiter-Glo, 72 h; activity change, negative = cytotoxicity: at 46.1 µM (top of the series)", "procedure,_shortened": "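Drug-selected KB-V1 cells, grown in DMEM lacking phenol red with 10% FBS, receive compound titrations; after three days at 37 degrees C, surviving cell ATP is quantified by CellTiter-Glo luminescence and responses normalized and curve-fitted.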", "values": [{"compound": "COC(=O)/C=C(\\C)NC(=O)c1ccc(F)cc1", "Potency": "inconclusive: 8.2 µM [rising, partial curve, poor fit]"}, {"compound": "COc1ccccc1-c1noc(CCC(=O)Nc2ccc(C)cc2C)n1", "activity change, negative = cytotoxicity": "inactive: 11.9%"}, {"compound": "CCOC(=O)c1c(C)[nH]c(C(=O)COC(=O)CN2C(=O)C3CCCCC3C2=O)c1C", "note": "(stereo not drawn)", "Potency": "inconclusive: 8.2 µM [cytotoxic, partial curve]"}, {"compound": "O=[N+]([O-])c1cccc(C=NNc2ccc3ccccc3n2)c1O", "Potency": "inconclusive: 0.411 µM [cytotoxic, full curve, poor fit]"}, {"compound": "CC(C)[C@@H](C(=O)N[C@@H](Cc1ccccc1)C(=O)O)N1C(=O)N2CCc3c([nH]c4ccccc34)[C@@]2(C)C1=O", "activity change, negative = cytotoxicity": "inactive: 0%"}, {"compound": "O=C(c1cccs1)N1CCN(Cc2cccc([N+](=O)[O-])c2)CC1", "activity change, negative = cytotoxicity": "inactive: -9.57%"}, {"compound": "Cc1cc(=O)[nH]c(SCc2cccc(Br)c2)n1", "Potency": "inconclusive: 18.4 µM [cytotoxic, partial curve, poor fit]"}, {"compound": "Cc1c(Cl)cccc1NC(=O)CN1CCC(C(O)(c2ccccc2)c2ccccc2)CC1", "Potency": "inconclusive: 8.2 µM [cytotoxic, partial curve, poor fit]"}, {"compound": "O=C(/C=C/c1cccs1)Nc1ccc(N2CCOCC2)c(S(=O)(=O)Nc2ccccc2Cl)c1", "Potency": "inconclusive: 6.51 µM [cytotoxic, partial curve]"}, {"compound": "COc1ccc(CN2CC(=O)N(c3ccc(C)c(C)c3)C2=S)cc1OC", "Potency": "inconclusive: 16.4 µM [cytotoxic, single point]"}, {"compound": "COC(=O)CSc1nc(C)cc(C)c1C#N", "Potency": "inconclusive: 29.1 µM [rising, single point]"}, {"compound": "COc1ccc(C(=O)NC(=S)Nc2ccccc2[N+](=O)[O-])cc1OC", "activity change, negative = cytotoxicity": "inactive: -1.35%"}, {"compound": "COc1cccc(NC2C=CS(=O)(=O)C2)c1", "note": "(stereo not drawn)", "Potency": "inconclusive: 11.6 µM [rising, partial curve, poor fit]"}, {"compound": "COc1ccc(N(CC(=O)Nc2ccccc2C(=O)N2CCOCC2)S(=O)(=O)c2ccc(F)cc2)cc1", "Potency": "inconclusive: 8.2 µM [cytotoxic, partial curve]"}, {"compound": "COc1ccc(S(=O)(=O)N2CCOCC2)cc1NC(=O)C1CCN(S(=O)(=O)c2ccc(Cl)cc2)CC1", "activity change, negative = cytotoxicity": "inactive: -24.9%"}, {"compound": "CC(C)(C)C(=O)N=C1SC2CS(=O)(=O)CC2N1c1ccc2c(c1)OCO2", "note": "(stereo not drawn)", "Potency": "inconclusive: 16.4 µM [cytotoxic, partial curve]"}, {"compound": "COc1cccc(NC(=O)C2=C(C)C(=O)OC23CCN(C(C)=O)CC3)c1", "Potency": "inconclusive: 29.1 µM [rising, single point]"}, {"compound": "CC1Cc2ccccc2N1C(=O)COC(=O)C1(c2ccccc2F)CCCC1", "note": "(stereo not drawn)", "Potency": "inconclusive: 10.3 µM [cytotoxic, partial curve, poor fit]"}]}]}
